According to patent US5576335A, “Urea derivatives and their use as ACAT inhibitors” (Nisshin Flour Milling Co., Ltd., priority 1994, dated 1996):
At least one compound was matched to its structure with a doubt left.

Test system: ACAT
Assay: ACAT inhibitory activity (labelled cholesteryl ester formation from [1-14C]oleoyl-CoA, liver microsome fractions)
Type: biochemical
Conditions: compound at 10^-7 M; rabbit liver microsomes; percent inhibition of formation of labelled cholesteryl esters
Protocol: 1. ACAT inhibitory activity
The enzyme preparation, ACAT was prepared from liver microsome fractions of male rabbits according to the method of E. E. Largis et al. (Journal of Lipid Research, Vol. 30, pages 681-690, 1989). The activity was calculated by assaying the amount of the labelled cholesteryl esters formed from [1-^14 C]oleoyl-CoA and endogenous cholesterol according to the method of Kazuichi NATORI et al. (Japan J. Pharmacol., Vol. 42, pages 517-523, 1986).
The result is shown in Table 1, in which percent inhibition of the formation of the labelled cholesteryl esters with a compound added at 10^-7 M is indicated as index for the ACAT inhibitory activity.

Row | SMILES | ACAT Inhibition (%)
1 | COc1ccc(NC(=O)NC23CC4CC(CC(C4)C2)C3)c(NC(=O)c2cc(C(C)(C)C)c(O)c(C(C)(C)C)c2)c1 [Example 19, N-[2-(3-adamantylureido)-5-methoxyphenyl]-3,5-di-t-butyl-4-hydroxybenzamide] | 78
2 | CC(C)(C)c1cc(C(=O)Nc2cc(F)ccc2NC(=O)NC23CC4CC(CC(C4)C2)C3)cc(C(C)(C)C)c1O [Example 31, N-[2-(3-adamantylureido)-5-fluorophenyl]-3,5-di-t-butyl-4-hydroxybenzamide] | 91
